Test results taken from article doi:10.1101/2023.10.10.561655.
No constants are given. Whether binding was seen depends on the method and setting. In cells and extracts the contact can be indirect. Some binding calls cover weakened binding; strength is not graded here. Where a sequence is shown, tags or fusion partners need not be part of it.

B1: Did2 (protein, UniProt P69771 1-204)
chain: MSRNSAAGLENTLFQLKFTSKQLQKQANKASKEEKQETNKLKRALNENEDISRIYASNAIRKKNERLQLLKLASRVDSVASRVQTAVTMRQVSASMGQVCKGMDKALQNMNLQQITMIMDKFEQQFEDLDTSVNVYEDMGVNSDAMLVDNDKVDELMSKVADENGMELKQSAKLDNVPEIKAKEVNVDDEKEDKLAQRLRALRG
B2: Vps24 (protein, UniProt P36095 1-224)
chain: MDYIKKAIWGPDPKEQQRRIRSVLRKNGRNIEKSLRELTVLQNKTQQLIKKSAKKNDVRTVRLYAKELYQINKQYDRMYTSRAQLDSVRMKIDEAIRMNTLSNQMADSAGLMREVNSLVRLPQLRNTMIELEKELMKSGIISEMVDDTMESVGDVGEEMDEAVDEEVNKIVEQYTNEKFKNVDQVPTVELAANEEEQEIPDEKVDEEADRMVNEMRERLRALQN
B3: Snf7 (protein, UniProt P39929 1-240)
chain: MWSSLFGWTSSNAKNKESPTKAIVRLREHINLLSKKQSHLRTQITNQENEARIFLTKGNKVMAKNALKKKKTIEQLLSKVEGTMESMEQQLFSIESANLNLETMRAMQEGAKAMKTIHSGLDIDKVDETMDEIREQVELGDEISDAISRPLITGANEVDEDELDEELDMLAQENANQETSKIVNNNVNAAPISENKVSLPSVPSNKIKQSENSVKDGEEEEDEEDEDEKALRELQAEMGL
B4: Vps2 (protein, UniProt P36108 1-232)
chain: MSLFEWVFGKNVTPQERLKKNQRALERTQRELEREKRKLELQDKKLVSEIKKSAKNGQVAAAKVQAKDLVRTRNYIQKFDNMKAQLQAISLRIQAVRSSDQMTRSMSEATGLLAGMNRTMNLPQLQRISMEFEKQSDLMGQRQEFMDEAIDNVMGDEVDEDEEADEIVNKVLDEIGVDLNSQLQSTPQNLVSNAPIAETAMGIPEPIGAGSEFHGNPDDDLQARLNTLKKQT
B5: Mos10 (protein, UniProt Q03390 1-229)
chain: MNRIFGYGNKKSHDQLLQESNQSMNQAQQSLSNRISQLDTQIAQLNFQLQNIQKNLQRSNNKQPSLRKQALKILNKRKQLENMKDSLDSQSWSMTQAQLTNDNLQNTMITINALKQTNNAMKAQYGKINIDKLQDMQDEMLDLIEQGDELQEVLAMNNNSGELDDISDAELDAELDALAQEDFTLPTSENSLGNDMPSYLLGANAPPAFIDEEPNLDTEDKNKALESAQ

biological target: T1, Tms1-13myc (yeast) (UniProt Q12116); test: co-IP
T1 sequence: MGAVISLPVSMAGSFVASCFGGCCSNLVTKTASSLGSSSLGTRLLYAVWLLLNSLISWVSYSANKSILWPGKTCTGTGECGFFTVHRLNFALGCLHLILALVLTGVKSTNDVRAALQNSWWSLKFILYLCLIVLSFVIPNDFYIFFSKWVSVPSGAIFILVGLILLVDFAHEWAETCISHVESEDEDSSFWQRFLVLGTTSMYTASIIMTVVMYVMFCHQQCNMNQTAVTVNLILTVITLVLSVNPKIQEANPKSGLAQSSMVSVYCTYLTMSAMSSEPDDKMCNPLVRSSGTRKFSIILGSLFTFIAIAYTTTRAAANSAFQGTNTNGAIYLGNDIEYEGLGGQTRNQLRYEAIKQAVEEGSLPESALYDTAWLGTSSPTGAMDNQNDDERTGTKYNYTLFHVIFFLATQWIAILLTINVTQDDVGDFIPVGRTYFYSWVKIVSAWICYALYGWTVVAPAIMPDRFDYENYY

| Binder | binding |
| --- | --- |
| B1 | binds |
| B2 | binds weakly |
| B3 | binds weakly |
| B4 | binds |
| B5 | binds weakly |

biological target: T2, sfGFP-Vps55 (yeast) (UniProt P47111); test: co-IP
T2 sequence: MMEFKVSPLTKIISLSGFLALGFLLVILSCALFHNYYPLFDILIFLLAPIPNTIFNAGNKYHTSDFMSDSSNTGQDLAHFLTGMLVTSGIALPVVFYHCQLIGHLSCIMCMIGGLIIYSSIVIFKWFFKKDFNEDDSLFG

| Binder | binding |
| --- | --- |
| B1 | binds |
| B2 | binds |
| B3 | binds |
| B4 | binds |
| B5 | binds weakly |
